This is an account of results in paper PMC4618059.

Sequences of proteins named here, by UniProt entry; tags and fusion partners are left off. A change or cut given only in a name is not applied to a line headed by its entry. Residues count along the entry.
UniProt P62137: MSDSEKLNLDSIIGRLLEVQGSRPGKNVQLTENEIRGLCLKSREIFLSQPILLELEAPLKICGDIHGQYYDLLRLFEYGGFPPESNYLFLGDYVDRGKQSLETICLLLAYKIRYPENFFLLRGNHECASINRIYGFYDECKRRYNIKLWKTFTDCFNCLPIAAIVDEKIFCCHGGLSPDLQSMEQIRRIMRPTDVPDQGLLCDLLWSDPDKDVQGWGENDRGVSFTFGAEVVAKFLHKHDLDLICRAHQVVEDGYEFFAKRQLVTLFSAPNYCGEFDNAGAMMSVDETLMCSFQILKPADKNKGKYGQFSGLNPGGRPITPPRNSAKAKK
UniProt P84077: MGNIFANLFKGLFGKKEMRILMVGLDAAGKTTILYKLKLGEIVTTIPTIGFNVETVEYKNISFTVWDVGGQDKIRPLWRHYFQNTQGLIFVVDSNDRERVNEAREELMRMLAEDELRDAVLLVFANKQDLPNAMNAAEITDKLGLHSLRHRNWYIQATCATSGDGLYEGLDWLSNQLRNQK
UniProt Q923T9: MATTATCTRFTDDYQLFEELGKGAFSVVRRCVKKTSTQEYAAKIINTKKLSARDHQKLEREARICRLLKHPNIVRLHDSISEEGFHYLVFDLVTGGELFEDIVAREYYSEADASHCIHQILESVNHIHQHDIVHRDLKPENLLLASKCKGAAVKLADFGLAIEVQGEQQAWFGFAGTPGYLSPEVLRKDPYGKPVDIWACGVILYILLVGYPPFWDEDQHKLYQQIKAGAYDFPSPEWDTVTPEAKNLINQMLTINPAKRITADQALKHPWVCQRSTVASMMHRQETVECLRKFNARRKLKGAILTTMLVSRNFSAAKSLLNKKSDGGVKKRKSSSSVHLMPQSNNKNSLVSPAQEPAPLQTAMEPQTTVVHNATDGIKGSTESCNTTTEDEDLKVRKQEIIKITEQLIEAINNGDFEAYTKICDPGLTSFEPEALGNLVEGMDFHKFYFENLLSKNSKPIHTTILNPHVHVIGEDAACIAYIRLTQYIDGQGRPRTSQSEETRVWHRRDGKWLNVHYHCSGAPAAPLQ
UniProt P07339: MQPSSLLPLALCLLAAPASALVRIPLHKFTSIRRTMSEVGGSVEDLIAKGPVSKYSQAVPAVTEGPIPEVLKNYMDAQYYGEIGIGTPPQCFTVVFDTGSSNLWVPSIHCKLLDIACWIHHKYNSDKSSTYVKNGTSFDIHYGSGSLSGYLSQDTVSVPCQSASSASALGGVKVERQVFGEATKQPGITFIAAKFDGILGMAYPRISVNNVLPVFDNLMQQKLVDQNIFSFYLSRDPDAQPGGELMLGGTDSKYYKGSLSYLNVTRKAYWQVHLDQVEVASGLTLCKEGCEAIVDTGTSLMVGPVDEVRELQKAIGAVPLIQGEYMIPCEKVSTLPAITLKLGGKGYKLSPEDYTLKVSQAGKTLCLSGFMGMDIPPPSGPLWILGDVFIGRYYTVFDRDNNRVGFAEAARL
UniProt P11021, residues 19-654: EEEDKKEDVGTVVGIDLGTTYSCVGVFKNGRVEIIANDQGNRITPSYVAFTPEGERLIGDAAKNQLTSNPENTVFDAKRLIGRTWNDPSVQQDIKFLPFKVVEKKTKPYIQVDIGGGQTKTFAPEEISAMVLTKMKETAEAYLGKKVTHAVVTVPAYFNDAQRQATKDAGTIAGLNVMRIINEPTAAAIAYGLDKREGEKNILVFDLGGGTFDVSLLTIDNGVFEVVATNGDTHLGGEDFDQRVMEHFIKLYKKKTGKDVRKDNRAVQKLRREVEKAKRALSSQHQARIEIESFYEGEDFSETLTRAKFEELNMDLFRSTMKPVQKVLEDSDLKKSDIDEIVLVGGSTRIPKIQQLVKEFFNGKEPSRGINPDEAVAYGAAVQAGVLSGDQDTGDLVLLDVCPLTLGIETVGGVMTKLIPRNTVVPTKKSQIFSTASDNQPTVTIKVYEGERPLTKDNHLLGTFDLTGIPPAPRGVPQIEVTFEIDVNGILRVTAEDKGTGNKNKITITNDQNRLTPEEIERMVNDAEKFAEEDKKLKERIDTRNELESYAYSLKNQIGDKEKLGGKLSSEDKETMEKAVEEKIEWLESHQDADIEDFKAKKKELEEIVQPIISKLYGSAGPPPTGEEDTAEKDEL
UniProt O88307, residues 82-2215: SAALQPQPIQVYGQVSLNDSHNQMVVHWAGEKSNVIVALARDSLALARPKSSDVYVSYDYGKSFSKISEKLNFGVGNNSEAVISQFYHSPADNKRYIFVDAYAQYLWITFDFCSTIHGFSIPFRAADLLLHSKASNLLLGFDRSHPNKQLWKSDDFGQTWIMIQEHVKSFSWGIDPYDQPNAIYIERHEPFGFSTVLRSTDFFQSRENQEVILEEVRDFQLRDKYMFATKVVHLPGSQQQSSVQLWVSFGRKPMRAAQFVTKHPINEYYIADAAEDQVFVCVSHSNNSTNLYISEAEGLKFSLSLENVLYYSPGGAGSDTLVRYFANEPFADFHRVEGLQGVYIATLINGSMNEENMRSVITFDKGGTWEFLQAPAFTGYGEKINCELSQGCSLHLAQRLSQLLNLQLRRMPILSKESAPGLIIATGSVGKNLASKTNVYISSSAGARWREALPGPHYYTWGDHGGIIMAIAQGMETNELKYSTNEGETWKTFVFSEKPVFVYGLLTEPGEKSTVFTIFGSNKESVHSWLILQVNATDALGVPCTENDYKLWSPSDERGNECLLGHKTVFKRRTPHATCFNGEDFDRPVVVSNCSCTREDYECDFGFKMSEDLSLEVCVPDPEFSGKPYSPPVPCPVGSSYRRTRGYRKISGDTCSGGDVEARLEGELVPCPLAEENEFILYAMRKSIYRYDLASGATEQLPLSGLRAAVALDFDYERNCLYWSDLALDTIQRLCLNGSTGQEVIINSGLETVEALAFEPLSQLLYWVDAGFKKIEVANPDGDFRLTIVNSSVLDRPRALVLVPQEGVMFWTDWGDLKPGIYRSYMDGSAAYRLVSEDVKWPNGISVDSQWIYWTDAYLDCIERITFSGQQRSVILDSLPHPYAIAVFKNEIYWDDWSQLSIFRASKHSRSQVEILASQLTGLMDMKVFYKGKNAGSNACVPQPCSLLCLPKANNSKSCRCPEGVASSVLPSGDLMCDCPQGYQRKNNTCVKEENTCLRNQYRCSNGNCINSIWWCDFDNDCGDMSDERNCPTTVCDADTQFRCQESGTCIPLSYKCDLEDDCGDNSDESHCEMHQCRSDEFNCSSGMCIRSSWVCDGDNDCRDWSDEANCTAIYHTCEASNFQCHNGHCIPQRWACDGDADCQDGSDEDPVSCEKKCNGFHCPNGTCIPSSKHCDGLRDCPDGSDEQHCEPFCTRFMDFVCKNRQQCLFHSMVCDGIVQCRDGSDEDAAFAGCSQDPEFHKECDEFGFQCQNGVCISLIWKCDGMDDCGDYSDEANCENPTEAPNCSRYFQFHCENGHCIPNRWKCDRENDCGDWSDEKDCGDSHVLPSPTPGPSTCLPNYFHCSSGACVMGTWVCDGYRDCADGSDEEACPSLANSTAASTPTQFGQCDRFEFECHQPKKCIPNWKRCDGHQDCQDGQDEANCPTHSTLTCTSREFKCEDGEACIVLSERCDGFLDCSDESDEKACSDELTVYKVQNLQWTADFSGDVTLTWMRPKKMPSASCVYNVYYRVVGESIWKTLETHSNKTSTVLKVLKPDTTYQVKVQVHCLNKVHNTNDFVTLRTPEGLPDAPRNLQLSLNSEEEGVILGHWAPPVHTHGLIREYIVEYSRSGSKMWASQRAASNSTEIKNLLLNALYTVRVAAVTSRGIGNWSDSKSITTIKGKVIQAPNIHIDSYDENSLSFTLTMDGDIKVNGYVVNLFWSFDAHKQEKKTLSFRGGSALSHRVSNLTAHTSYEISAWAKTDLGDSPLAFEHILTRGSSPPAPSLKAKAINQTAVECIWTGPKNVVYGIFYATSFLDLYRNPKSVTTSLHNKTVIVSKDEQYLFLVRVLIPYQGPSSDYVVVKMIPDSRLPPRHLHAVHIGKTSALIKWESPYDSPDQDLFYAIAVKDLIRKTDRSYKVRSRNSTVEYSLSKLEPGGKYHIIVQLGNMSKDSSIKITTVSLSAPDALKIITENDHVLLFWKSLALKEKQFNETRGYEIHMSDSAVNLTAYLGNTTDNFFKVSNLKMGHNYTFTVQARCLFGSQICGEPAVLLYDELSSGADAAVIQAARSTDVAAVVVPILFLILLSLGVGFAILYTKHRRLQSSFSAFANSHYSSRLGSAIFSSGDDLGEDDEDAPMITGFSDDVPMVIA
UniProt Q96QZ7: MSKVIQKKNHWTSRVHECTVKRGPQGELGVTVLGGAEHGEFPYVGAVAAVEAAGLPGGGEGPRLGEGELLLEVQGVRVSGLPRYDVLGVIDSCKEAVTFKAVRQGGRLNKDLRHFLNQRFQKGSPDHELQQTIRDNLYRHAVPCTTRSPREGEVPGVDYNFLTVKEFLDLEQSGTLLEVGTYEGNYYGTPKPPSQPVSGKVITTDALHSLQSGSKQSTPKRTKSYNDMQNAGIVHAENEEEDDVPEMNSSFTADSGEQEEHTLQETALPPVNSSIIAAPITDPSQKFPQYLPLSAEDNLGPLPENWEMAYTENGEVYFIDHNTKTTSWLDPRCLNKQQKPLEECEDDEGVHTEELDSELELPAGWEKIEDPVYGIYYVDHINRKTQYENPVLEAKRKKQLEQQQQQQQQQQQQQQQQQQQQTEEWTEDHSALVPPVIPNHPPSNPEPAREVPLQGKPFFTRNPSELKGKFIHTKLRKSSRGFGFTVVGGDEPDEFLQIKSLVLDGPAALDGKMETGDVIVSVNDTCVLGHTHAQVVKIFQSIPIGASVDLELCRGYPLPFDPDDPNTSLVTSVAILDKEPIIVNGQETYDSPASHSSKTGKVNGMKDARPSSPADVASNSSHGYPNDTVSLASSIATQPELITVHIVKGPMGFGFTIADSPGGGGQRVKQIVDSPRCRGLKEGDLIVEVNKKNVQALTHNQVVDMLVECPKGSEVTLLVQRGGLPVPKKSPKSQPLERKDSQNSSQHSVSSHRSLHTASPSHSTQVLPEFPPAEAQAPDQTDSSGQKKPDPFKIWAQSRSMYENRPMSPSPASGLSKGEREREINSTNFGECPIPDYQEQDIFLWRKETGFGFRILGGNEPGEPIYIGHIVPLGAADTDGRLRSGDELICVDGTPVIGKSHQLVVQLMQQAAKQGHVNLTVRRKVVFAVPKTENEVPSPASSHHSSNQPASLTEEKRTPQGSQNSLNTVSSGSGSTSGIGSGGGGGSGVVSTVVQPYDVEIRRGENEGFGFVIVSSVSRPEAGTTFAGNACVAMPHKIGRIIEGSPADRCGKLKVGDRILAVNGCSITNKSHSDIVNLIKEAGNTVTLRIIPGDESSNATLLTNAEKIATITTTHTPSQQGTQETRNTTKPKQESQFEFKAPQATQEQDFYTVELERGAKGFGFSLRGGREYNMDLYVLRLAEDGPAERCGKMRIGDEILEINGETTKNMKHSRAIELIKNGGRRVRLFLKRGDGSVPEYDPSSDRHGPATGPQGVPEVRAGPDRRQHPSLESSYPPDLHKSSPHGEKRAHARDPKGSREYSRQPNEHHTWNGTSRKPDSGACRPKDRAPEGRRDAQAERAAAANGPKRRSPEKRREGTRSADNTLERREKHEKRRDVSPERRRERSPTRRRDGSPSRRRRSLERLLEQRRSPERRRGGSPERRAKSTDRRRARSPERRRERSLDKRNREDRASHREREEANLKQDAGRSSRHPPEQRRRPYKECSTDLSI
UniProt Q64012: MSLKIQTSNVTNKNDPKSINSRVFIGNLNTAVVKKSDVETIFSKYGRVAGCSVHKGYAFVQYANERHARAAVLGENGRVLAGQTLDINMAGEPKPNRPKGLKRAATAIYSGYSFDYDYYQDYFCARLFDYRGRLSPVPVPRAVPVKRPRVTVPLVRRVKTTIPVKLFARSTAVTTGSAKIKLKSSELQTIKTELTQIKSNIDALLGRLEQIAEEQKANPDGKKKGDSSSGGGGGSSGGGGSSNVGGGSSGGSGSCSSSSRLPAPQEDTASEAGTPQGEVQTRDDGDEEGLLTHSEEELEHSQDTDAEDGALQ
UniProt Q14240: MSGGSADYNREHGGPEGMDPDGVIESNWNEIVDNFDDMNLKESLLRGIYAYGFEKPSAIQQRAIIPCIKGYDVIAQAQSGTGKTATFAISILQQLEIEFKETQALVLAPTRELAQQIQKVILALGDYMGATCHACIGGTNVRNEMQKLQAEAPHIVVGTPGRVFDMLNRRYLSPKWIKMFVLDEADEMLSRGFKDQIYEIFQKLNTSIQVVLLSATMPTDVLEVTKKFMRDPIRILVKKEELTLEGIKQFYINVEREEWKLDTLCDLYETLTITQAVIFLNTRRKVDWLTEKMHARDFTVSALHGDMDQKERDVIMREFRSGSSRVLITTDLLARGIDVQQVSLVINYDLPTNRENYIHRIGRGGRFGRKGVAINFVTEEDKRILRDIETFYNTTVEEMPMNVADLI
UniProt P69905: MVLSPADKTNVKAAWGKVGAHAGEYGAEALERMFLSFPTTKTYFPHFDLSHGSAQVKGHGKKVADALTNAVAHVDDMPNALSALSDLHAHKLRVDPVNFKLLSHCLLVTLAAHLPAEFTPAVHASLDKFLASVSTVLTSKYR

These are yes or no findings as the source states them, for the method shown. Binding seen in cells or lysates may run through a third protein. These calls come from enrichment with a bait or labelling near it, and not all partners need be listed.

In assay [1] the target is T1, MAS C-terminal tail (Ct) peptide, residues 301 to 325 of human MAS receptor, N-terminal biotin, C316S (human).
T1 sequence (peptide, biotin on the N-terminus): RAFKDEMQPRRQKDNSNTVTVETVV
The experiment in a line: affinity purification with mass spectrometry; biotinylated MAS Ct peptide immobilised on NeutrAvidin agarose resin; HL-1 cell lysate (~6 mg), overnight at 4°C; washes with D-PBS; elution with 2% SDS; LC-MS of whole gel lanes; resin alone as control; only the target purified.

Assay [2] shares this target. The experiment in a line: affinity purification with mass spectrometry; biotinylated MAS Ct peptide immobilised on NeutrAvidin agarose resin; human cardiac tissue lysate (~600 μg), overnight at 4°C; washes with D-PBS; elution with 2% SDS; LC-MS of whole gel lanes; resin alone as control; only the target purified.
Assay [3] shares this target. The experiment in a line: affinity purification with mass spectrometry; biotinylated MAS Ct peptide immobilised on NeutrAvidin agarose resin; HEK293 cell lysate (~4 mg), overnight at 4°C; washes with D-PBS; elution with 2% SDS; LC-MS of whole gel lanes; resin alone as control; only the target purified.
For assay [4] the target is unchanged. In words: affinity purification with mass spectrometry; as a1 and a2; the lysate in which this PDZ hit was found (HEK293, HL-1 or both) is told only in Fig 2B; only the target purified.

Turning to “MAGI1 (mouse) (from UniProt Q6RHR9 1-1471)”, in assay [1], the binding entry is listed as “binds”. The same measure, in the same setting: the entry for PP1A (from UniProt P62137 1-330) is “binds”. Regarding HMCN1 (from UniProt Q96RW7 22-5635), in assay [2], the binding entry is reported as “binds”. The same measure, in the same setting: in the case of EF1A1 (from UniProt P68104 1-462) it was “binds”; in that of ARF1 (from UniProt P84077 1-181), “binds”. Turning to CAMK2G (from UniProt Q923T9 1-529), the binding result in assay [1] was “binds”. As for TNNI3 (from UniProt P19429 1-210), the binding entry in assay [2] is given as “binds”. Regarding CATD (from UniProt P07339), the binding result in assay [2] is “binds”. On the same count and under the same terms, in the case of GRP78 (from UniProt P11021 19-654) it was “binds”. For the molecule “DMD (mouse) (from UniProt P11531 1-3678)”, in assay [1], the binding entry is “binds”.

Turning to SC23B (from UniProt Q9D662 1-767), the binding result in assay [1] is “binds”. The same measure, in the same setting: in the case of SORL (from UniProt O88307 82-2215) it was “binds”. Regarding “MAGI1 (human) (from UniProt Q96QZ7 1-1491)”, the binding entry in assay [3] and in assay [2] was “binds” throughout. On to RALY (from UniProt Q64012 1-312), for which, in assay [1], the binding entry was “binds”. As to “ACACB (human (endogenous in heart tissue))”, in assay [2], the binding entry is listed as “binds”. Still for that read-out and setting: the entry for IF4A2 (from UniProt Q14240 1-407) is “binds”; for HBA (from UniProt P69905 1-142) it is “binds”.

B1: MPP2 (protein, UniProt Q14168 1-576)
chain: MPVAATNSETAMQQVLDNLGSLPSATGAAELDLIFLRGIMESPIVRSLAKVIMVLWFMQQNVFVPMKYMLKYFGAHERLEETKLEAVRDNNLELVQEILRDLAHVAEQSSTAAELAHILQEPHFQSLLETHDSVASKTYETPPPSPGLDPTFSNQPVPPDAVRMVGIRKTAGEHLGVTFRVEGGELVIARILHGGMVAQQGLLHVGDIIKEVNGQPVGSDPRALQELLRNASGSVILKILPSYQEPHLPRQVFVKCHFDYDPARDSLIPCKEAGLRFNAGDLLQIVNQDDANWWQACHVEGGSAGLIPSQLLEEKRKAFVKRDLELTPNSGTLCGSLSGKKKKRMMYLTTKNAEFDRHELLIYEEVARMPPFRRKTLVLIGAQGVGRRSLKNKLIMWDPDRYGTTVPYTSRRPKDSEREGQGYSFVSRGEMEADVRAGRYLEHGEYEGNLYGTRIDSIRGVVAAGKVCVLDVNPQAVKVLRTAEFVPYVVFIEAPDFETLRAMNRAALESGISTKQLTEADLRRTVEESSRIQRGYGHYFDLCLVNSNLERTFRELQTAMEKLRTEPQWVPVSWVY
Consider B1, for which the binding entry in assay [4] was “binds”.

B2: LIN7C (protein, UniProt Q9NUP9 1-197)
chain: MAALGEPVRLERDICRAIELLEKLQRSGEVPPQKLQALQRVLQSEFCNAVREVYEHVYETVDISSSPEVRANATAKATVAAFAASEGHSHPRVVELPKTEEGLGFNIMGGKEQNSPIYISRIIPGGIADRHGGLKRGDQLLSVNGVSVEGEHHEKAVELLKAAQGKVKLVVRYTPKVLEEMESRFEKMRSAKRRQQT
With B2, the binding result in assay [4] is recorded as “binds”.

B3: LNX2 (protein, UniProt Q8N448 1-690)
chain: MGTTSDEMVSVEQTSSSSLNPLCFECGQQHWTRENHLYNYQNEVDDDLVCHICLQPLLQPLDTPCGHTFCYKCLRNFLQEKDFCPLDRKRLHFKLCKKSSILVHKLLDKLLVLCPFSSVCKDVMQRCDLEAHLKNRCPGASHRRVALERRKTSRTQAEIENENGPTLLDPAGTLSPEADCLGTGAVPVERHLTSASLSTWSEEPGLDNPAFEESAGADTTQQPLSLPEGEITTIEIHRSNPYIQLGISIVGGNETPLINIVIQEVYRDGVIARDGRLLAGDQILQVNNYNISNVSHNYARAVLSQPCNTLHLTVLRERRFGNRAHNHSDSNSPREEIFQVALHKRDSGEQLGIKLVRRTDEPGVFILDLLEGGLAAQDGRLSSNDRVLAINGHDLKYGTPELAAQIIQASGERVNLTIARPGKPQPGNTIREAGNHSSSSQHHTPPPYYSRPSSHKDLTQCVTCQEKHITVKKEPHESLGMTVAGGRGSKSGELPIFVTSVPPHGCLARDGRIKRGDVLLNINGIDLTNLSHSEAVAMLKASAASPAVALKALEVQIVEEATQNAEEQPSTFSENEYDASWSPSWVMWLGLPSTLHSCHDIVLRRSYLGSWGFSIVGGYEENHTNQPFFIKTIVLGTPAYYDGRLKCGDMIVAVNGLSTVGMSHSALVPMLKEQRNKVTLTVICWPGSLV
With B3, the binding entry in assay [4] was “binds”.

B4: LNX1 (protein, UniProt Q8TBB1 1-728)
chain: MNQPESANDPEPLCAVCGQAHSLEENHFYSYPEEVDDDLICHICLQALLDPLDTPCGHTYCTLCLTNFLVEKDFCPMDRKPLVLQHCKKSSILVNKLLNKLLVTCPFREHCTQVLQRCDLEHHFQTSCKGASHYGLTKDRKRRSQDGCPDGCASLTATAPSPEVSAAATISLMTDEPGLDNPAYVSSAEDGQPAISPVDSGRSNRTRARPFERSTIRSRSFKKINRALSVLRRTKSGSAVANHADQGRENSENTTAPEVFPRLYHLIPDGEITSIKINRVDPSESLSIRLVGGSETPLVHIIIQHIYRDGVIARDGRLLPGDIILKVNGMDISNVPHNYAVRLLRQPCQVLWLTVMREQKFRSRNNGQAPDAYRPRDDSFHVILNKSSPEEQLGIKLVRKVDEPGVFIFNVLDGGVAYRHGQLEENDRVLAINGHDLRYGSPESAAHLIQASERRVHLVVSRQVRQRSPDIFQEAGWNSNGSWSPGPGERSNTPKPLHPTITCHEKVVNIQKDPGESLGMTVAGGASHREWDLPIYVISVEPGGVISRDGRIKTGDILLNVDGVELTEVSRSEAVALLKRTSSSIVLKALEVKEYEPQEDCSSPAALDSNHNMAPPSDWSPSWVMWLELPRCLYNCKDIVLRRNTAGSLGFCIVGGYEEYNGNKPFFIKSIVEGTPAYNDGRIRCGDILLAVNGRSTSGMIHACLARLLKELKGRITLTIVSWPGTFL
B4: the binding entry in assay [4] is recorded as “binds”.

B5: LIN7A (protein, UniProt O14910 1-233)
chain: MLKPSVTSAPTADMATLTVVQPLTLDRDVARAIELLEKLQESGEVPVHKLQSLKKVLQSEFCTAIREVYQYMHETITVNGCPEFRARATAKATVAAFAASEGHSHPRVVELPKTDEGLGFNVMGGKEQNSPIYISRIIPGGVAERHGGLKRGDQLLSVNGVSVEGEHHEKAVELLKAAKDSVKLVVRYTPKVLEEMEARFEKLRTARRRQQQQLLIQQQQQQQQQQTQQNHMS
Consider B5, for which, in assay [4], the binding entry is on record as “binds”.

B6: MAGI3 (protein, UniProt Q5TCQ9 1-1481)
chain: MSKTLKKKKHWLSKVQECAVSWAGPPGDFGAEIRGGAERGEFPYLGRLREEPGGGTCCVVSGKAPSPGDVLLEVNGTPVSGLTNRDTLAVIRHFREPIRLKTVKPGKVINKDLRHYLSLQFQKGSIDHKLQQVIRDNLYLRTIPCTTRAPRDGEVPGVDYNFISVEQFKALEESGALLESGTYDGNFYGTPKPPAEPSPFQPDPVDQVLFDNEFDAESQRKRTTSVSKMERMDSSLPEEEEDEDKEAINGSGNAENRERHSESSDWMKTVPSYNQTNSSMDFRNYMMRDETLEPLPKNWEMAYTDTGMIYFIDHNTKTTTWLDPRLCKKAKAPEDCEDGELPYGWEKIEDPQYGTYYVDHLNQKTQFENPVEEAKRKKQLGQVEIGSSKPDMEKSHFTRDPSQLKGVLVRASLKKSTMGFGFTIIGGDRPDEFLQVKNVLKDGPAAQDGKIAPGDVIVDINGNCVLGHTHADVVQMFQLVPVNQYVNLTLCRGYPLPDDSEDPVVDIVAATPVINGQSLTKGETCMNPQDFKPGAMVLEQNGKSGHTLTGDGLNGPSDASEQRVSMASSGSSQPELVTIPLIKGPKGFGFAIADSPTGQKVKMILDSQWCQGLQKGDIIKEIYHQNVQNLTHLQVVEVLKQFPVGADVPLLILRGGPPSPTKTAKMKTDKKENAGSLEAINEPIPQPMPFPPSIIRSGSPKLDPSEVYLKSKTLYEDKPPNTKDLDVFLRKQESGFGFRVLGGDGPDQSIYIGAIIPLGAAEKDGRLRAADELMCIDGIPVKGKSHKQVLDLMTTAARNGHVLLTVRRKIFYGEKQPEDDSSQAFISTQNGSPRLNRAEVPARPAPQEPYDVVLQRKENEGFGFVILTSKNKPPPGVIPHKIGRVIEGSPADRCGKLKVGDHISAVNGQSIVELSHDNIVQLIKDAGVTVTLTVIAEEEHHGPPSGTNSARQSPALQHRPMGQSQANHIPGDRSALEGEIGKDVSTSYRHSWSDHKHLAQPDTAVISVVGSRHNQNLGCYPVELERGPRGFGFSLRGGKEYNMGLFILRLAEDGPAIKDGRIHVGDQIVEINGEPTQGITHTRAIELIQAGGNKVLLLLRPGTGLIPDHGDWDINNPSSSNVIYDEQSPLPPSSHFASIFEESHVPVIEESLRVQICEKAEELKDIVPEKKSTLNENQPEIKHQSLLQKNVSKRDPPSSHGHSNKKNLLKVENGVTRRGRSVSPKKPASQHSEEHLDKIPSPLKNNPKRRPRDQSLSPSKGENKSCQVSTRAGSGQDQCRKSRGRSASPKKQQKIEGSKAPSNAEAKLLEGKSRRIAGYTGSNAEQIPDGKEKSDVIRKDAKQNQLEKSRTRSPEKKIKRMVEKSLPSKMTNKTTSKEVSENEKGKKVTTGETSSSNDKIGENVQLSEKRLKQEPEEKVVSNKTEDHKGKELEAADKNKETGRFKPESSSPVKKTLITPGPWKVPSGNKVTGTIGMAEKRQ
For B6, the binding result in assay [4] is “binds”.

B7: MPP6 (protein, UniProt Q9NZW5 1-540)
chain: MQQVLENLTELPSSTGAEEIDLIFLKGIMENPIVKSLAKAHERLEDSKLEAVSDNNLELVNEILEDITPLINVDENVAELVGILKEPHFQSLLEAHDIVASKCYDSPPSSPEMNNSSINNQLLPVDAIRILGIHKRAGEPLGVTFRVENNDLVIARILHGGMIDRQGLLHVGDIIKEVNGHEVGNNPKELQELLKNISGSVTLKILPSYRDTITPQQVFVKCHFDYNPYNDNLIPCKEAGLKFSKGEILQIVNREDPNWWQASHVKEGGSAGLIPSQFLEEKRKAFVRRDWDNSGPFCGTISSKKKKKMMYLTTRNAEFDRHEIQIYEEVAKMPPFQRKTLVLIGAQGVGRRSLKNRFIVLNPTRFGTTVPFTSRKPREDEKDGQAYKFVSRSEMEADIKAGKYLEHGEYEGNLYGTKIDSILEVVQTGRTCILDVNPQALKVLRTSEFMPYVVFIAAPELETLRAMHKAVVDAGITTKLLTDSDLKKTVDESARIQRAYNHYFDLIIINDNLDKAFEKLQTAIEKLRMEPQWVPISWVY
B7: in assay [4], the binding result is reported as “binds”.
